# Assay results from PubChem BioAssay AID493014 (National Center for Advancing Translational Sciences (NCATS), 2011).
# Some of the results follow. These are further read-outs of the screen, such as a control signal, another cell line or another target. No call is given for them. Compounds called inactive in the main read-out are mostly missing here. Potencies come from curve fits of mixed quality, noted in brackets.
# Test: qHTS Assay to Find Inhibitors of Chronic Active B-Cell Receptor Signaling
# Conditions: ABC-DLBCL IkBa-CBG/CBR reporter, luminescence ratio (green luciferase fused to IkBa over red control in TMD8 lymphoma cells), 4 h; measured here: CBR red luminescence, cell number
# Method in brief: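 Cell line TMD8 (human ABC DLBCL), stably expressing tet-inducible CBG68-IkBa fusion and CBR; IMDM/0.5% FBS; cpd up to 46 uM; dox induction, 4 h, 37C/5% CO2; dual luminescence; green/red ratio; MG132 control.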
row,Structure (SMILES),AC50
1,Cc1cccc(-n2c(O)c(C=NCCN3CCCCC3)c(=O)[nH]c2=O)c1,"3.98 µM [rising, full curve, poor fit]"
2,Cc1nc2ccccc2c(=O)n1-c1ccc(F)cc1F,"28.2 µM [rising, single point]"
3,Cc1ccc2c(c1)C1CN(C)CCC1N2S(=O)(=O)c1ccccc1 (stereo not given),"31.6 µM [falling, partial curve, poor fit]"
4,Nc1c(C(=O)NCc2ccco2)c2nc3ccccc3nc2n1Cc1ccccc1,"18.4 µM [falling, partial curve]"
5,Cc1cccc(-n2c(C)nc3cc(C(=O)N4CCC5(CC4)OCCO5)ccc32)c1,"3.98 µM [rising, partial curve, poor fit]"
6,Oc1ccc(C2NCc3ccccc3-n3cccc32)cc1Cl (stereo not given),"29.1 µM [falling, single point]"
7,CCOc1cccc(CNCCc2c(C)[nH]c3ccc(OC(F)(F)F)cc23)c1O,"35.5 µM [falling, single point]"
8,O=C(CN1CC=C(c2ccccc2)CC1)NC(=O)NCc1ccco1,"11.2 µM [rising, partial curve, poor fit]"
9,COC(=O)c1cccc(COC(=O)c2cc3ccccc3oc2=O)c1,"11.2 µM [rising, partial curve, poor fit]"
10,Cc1ccccc1N1CCN(C2CCCN(C(=O)Cc3c(C)noc3C)C2)CC1 (stereo not given),"35.5 µM [falling, single point]"
11,O=C(N/N=C1/CN2CCC1CC2)c1cccc(O)c1,"1.46 µM [falling, partial curve]"
12,Cc1cc(C)c(-n2c(O)c(/C=N/NC(=O)c3ccncc3)c(=O)[nH]c2=O)c(C)c1,"0.891 µM [rising, full curve, poor fit]"
13,COCCOC(=O)c1c(C)n(C)c2ccc(OC(=O)N3CCOCC3)cc12,"35.5 µM [falling, single point]"
14,CCCCCn1c(=O)c(C(=O)Nc2ccccc2N)c(O)c2ccccc21,"20 µM [rising, single point]"
15,CCOC(=O)C(O)(c1ccc(NC(=S)NC(=O)c2ccc(Cl)cc2Cl)c(C)c1)C(F)(F)F (stereo not given),"16.4 µM [falling, single point]"
16,COc1ccc(CCn2c(O)c(C=Nc3ccc(F)cc3)c(=O)[nH]c2=O)cc1OC,"3.98 µM [rising, single point]"
17,CN(C)C(=O)Oc1ccc2ccccc2c1Cl,"0.58 µM [falling, full curve]"
18,CN1CCN(c2ccc3nccnc3c2)CC1,"31.6 µM [falling, single point]"
19,CCC(C)N=Cc1c(O)n(-c2ccccc2)c(=O)[nH]c1=O (stereo not given),"29.1 µM [falling, single point]"
20,O=S1(=O)N(CCN2CC=C(c3c[nH]c4cc(F)ccc34)CC2)c2cccc3c2N1CCC3,"2.91 µM [rising, full curve]"
21,CNC(=S)NC1CC2CCCC(C1)N2CC(C)C (stereo not given),"3.55 µM [rising, single point]"
22,CN(C)CCCN1c2ccccc2Sc2ccc(Cl)cc21,"31.6 µM [falling, partial curve, poor fit]"

row,Structure (SMILES),AC50
1,c1ccc2c(c1)[nH]c1cnccc12,"12.6 µM [falling, partial curve, poor fit]"
2,Cc1cc(-c2ccccc2)cc(-c2ccccc2)[n+]1CCc1ccccc1,"20.6 µM [falling, single point]"
3,Clc1ccc(-c2cc3ccccc3nc2N2CCOCC2)cc1,"35.5 µM [rising, single point]"
4,O=C(C(=O)N1CCOCC1)c1cn(Cc2c(F)cccc2Cl)c2ccccc12,"3.98 µM [rising, single point]"
5,COc1ccc(Br)cc1CNCCc1cccc(Cl)c1,"14.1 µM [falling, single point]"
6,Cc1c(/C=N/NC(=O)c2ccc(Br)o2)cnn1C,"35.5 µM [falling, single point]"
7,O=c1cccc2n1CC1CC2CN(Cc2cccc(Cl)c2Cl)C1 (stereo not given),"5.01 µM [falling, partial curve]"
8,Nc1ccc2c3c(cccc13)CC2,"31.6 µM [rising, single point]"
9,Cc1cccc(N2C(=O)NC(=O)/C(=C\c3cc(C)n(-c4sc5c(c4C#N)CCCC5)c3C)C2=O)c1C,"16.4 µM [rising, partial curve, poor fit]"
10,O=C(CCNC(=O)N1C[C@H]2C[C@@H](C1)c1cccc(=O)n1C2)Nc1cccc(Cl)c1,"14.1 µM [rising, partial curve, poor fit]"
11,COc1ccccc1Cn1c(SCC(=O)C(C)(C)C)nc2cc(C(=O)N3CCC4(CC3)OCCO4)ccc2c1=O,"3.55 µM [rising, partial curve, poor fit]"
12,O=C(Nc1nccs1)c1ccc(S(=O)(=O)NCC2CCCCC2)cc1,"11.2 µM [falling, partial curve, poor fit]"
13,CC(C)CNC(=O)c1c(N)n(Cc2ccco2)c2nc3ccccc3nc12,"9.2 µM [falling, partial curve, poor fit]"
14,O=C(c1cc2c(s1)CCCC2)N1CCC2(CC1)OCCO2,"4.11 µM [rising, full curve, poor fit]"
15,COc1ccc(NC(=O)CCCn2c(=O)oc3ccccc32)cc1Cl,"29.1 µM [rising, single point]"
16,O=C1c2ccccc2C(=O)N1CCCn1c(=O)oc2ccccc21,"29.1 µM [falling, single point]"
17,Cc1cc(OC(=O)c2ccco2)c2c3c(c(=O)oc2c1)CCC3,"0.1 µM [rising, full curve, poor fit]"
18,Cn1c(O)c(/C=C2/C=CC=N2)c(=O)[nH]c1=O,"11.2 µM [falling, single point]"
19,CCOC(=O)[C@@]1(C#N)C(c2ccc(Cl)c(Cl)c2)[C@H](C(N)=O)N2C=C(C(C)=O)C=C[C@H]21 (stereo not given in full),"5.62 µM [falling, full curve, poor fit]"
20,CN(C)CCn1cnc2ccccc21,"12.6 µM [rising, partial curve, poor fit]"
21,CCCOc1ccc(C(=O)NC(=S)N2C[C@H]3C[C@H](C2)c2cccc(=O)n2C3)cc1,"11.2 µM [rising, partial curve, poor fit]"
22,CN=C1S/C(=C\c2ccc(SC)cc2)C(=O)N1C,"3.16 µM [rising, full curve]"

# Given bar-delimited: entries from further up
row | Structure (SMILES) | AC50
3 | Clc1ccc(-c2cc3ccccc3nc2N2CCOCC2)cc1 | 35.5 µM [rising, single point]
9 | Cc1cccc(N2C(=O)NC(=O)/C(=C\c3cc(C)n(-c4sc5c(c4C#N)CCCC5)c3C)C2=O)c1C | 16.4 µM [rising, partial curve, poor fit]
18 | Cn1c(O)c(/C=C2/C=CC=N2)c(=O)[nH]c1=O | 11.2 µM [falling, single point]

# Later entries.

row,Structure (SMILES),AC50
1,O=c1oc2ccccc2c(O)c1C(c1ccc([N+](=O)[O-])cc1)c1c(O)c2ccccc2oc1=O,"3.98 µM [falling, full curve]"
2,O=C1NC(=O)N(c2ccc(Br)cc2)C(=O)/C1=C/c1ccsc1,"0.794 µM [falling, full curve, poor fit]"
3,CCOc1ccc(N2C(=O)/C(=C\c3cccs3)C(=O)NC2=S)cc1,"5.01 µM [rising, single point]"
4,C#C[C@]1(O)CCC2C3CCC4=C/C(=N/OCC(=O)NC(C)C(=O)NC(CCSC)C(=O)O)CC[C@]4(C)C3CC[C@@]21C (stereo not given in full),"0.891 µM [rising, full curve, poor fit]"
5,CC1CCCC(C)N1/N=C/c1c[nH]c2ccc(Br)cc12 (stereo not given),"23.1 µM [falling, single point]"
6,CCCCCn1c(=O)c(C(=O)Nc2nc3ccccc3[nH]2)c(O)c2ccccc21,"15.8 µM [falling, partial curve]"
7,CCn1c(O)c(/C=N/N2CCOCC2)c(=O)n(CC)c1=S,"20.6 µM [falling, single point]"
8,COC(=O)C1=C(c2ccc(F)cc2F)C[C@@H]2CC[C@H]1N2C(=O)NC(C)C,"10.3 µM [rising, partial curve]"
9,CON(C)C(=O)Nc1ccc(Cl)cc1,"3.66 µM [rising, full curve]"
10,COC(=O)c1cccc(NC(=S)NCCC2=CCCCC2)c1,"12.6 µM [falling, partial curve]"
11,CCC1C(c2ccccc2)NC(c2ccccc2)CC1(O)c1ccc(F)cc1 (stereo not given),"17.8 µM [falling, single point]"
12,COC(=O)c1c(C)[nH]c(C(=O)C(Cc2ccccc2)N(C)C)c1C (stereo not given),"6.51 µM [rising, single point]"
13,CC12CN3CC(C)(CN(C1)C3c1cccs1)C2=O (stereo not given),"14.1 µM [rising, partial curve, poor fit]"
14,Fc1ccc(C[n+]2c(-c3ccccc3)cc(-c3ccccc3)cc2-c2ccccc2)cc1,"23.1 µM [falling, partial curve]"
15,COc1ccccc1C(O)P(=O)(OCC(C)C)c1ccc(N(C)C)cc1 (stereo not given),"14.1 µM [falling, single point]"
16,N/C(=N\N=C/c1ccc(-c2ccc(O)c(C(=O)O)c2)o1)N[N+](=O)[O-],"12.6 µM [falling, single point]"
17,Cc1cccc(OP(N)(=O)Oc2cccc(C)c2)c1,"20 µM [rising, single point]"
18,COc1ccc(CCC(C)NCCc2ccccc2)cc1 (stereo not given),"14.6 µM [rising, partial curve, poor fit]"
19,Cc1c(C(c2ccc(F)cc2)c2c(O)c3ccccc3oc2=O)c(=O)n(-c2ccccc2)n1C (stereo not given),"8.2 µM [falling, partial curve]"
20,CCOC(=O)c1cccc(-[n+]2c(-c3ccccc3)cc(-c3ccccc3)cc2-c2ccccc2)c1,"9.2 µM [falling, partial curve, poor fit]"
21,COC(=O)C1=C(c2ccc(Cl)c(C(F)(F)F)c2)C[C@@H]2CC[C@H]1N2C(=O)NC1CCCCC1,"18.4 µM [falling, partial curve]"

# 2 records drawn at random from those above:
row,Structure (SMILES),AC50
21,CCCOc1ccc(C(=O)NC(=S)N2C[C@H]3C[C@H](C2)c2cccc(=O)n2C3)cc1,"11.2 µM [rising, partial curve, poor fit]"
10,Cc1ccccc1N1CCN(C2CCCN(C(=O)Cc3c(C)noc3C)C2)CC1 (stereo not given),"35.5 µM [falling, single point]"
